Test results as given in patent US10206401B2, “Pyridine compounds for controlling invertebrate pests II” (BASF SE, priority 2010, dated 2019).
Some results were stated once for a whole list of compounds, not compound by compound.

Legend:
Format in all cases: in vivo
[1] = tested on: Cotton Aphid (Aphis gossypii, Mixed Life Stages); assay: Cotton aphid, method b (electrostatic spray); settings: 300 ppm; cotton plants sprayed; after 5 days
[2] = tested on: Green Peach Aphid (Myzus persicae, Mixed Life Stages); assay: Green peach aphid, method b (bell pepper spray); settings: 300 ppm; bell pepper plants sprayed; after 5 days
[3] = tested on: Cowpea Aphid (Aphis craccivora); assay: Cowpea aphid, potted cowpea plants sprayed; settings: 300 ppm, population reduction assessed after 24, 72 and 120 hours
Procedure: II.3 Cowpea Aphid (Aphis craccivora)
The active compounds were formulated in 50:50 (vol/vol) acetone:water. The test solution was prepared at the day of use.
Potted cowpea plants colonized with 100-150 aphids of various stages were sprayed after the pest population had been recorded. Population reduction was assesed after 24, 72, and 120 hours.

[4] = tested on: Vetch Aphid (Megoura viciae); assay: Vetch aphid, bean leaf disks in microtiterplates; settings: test solution 2500 mg/L; bean leaf disks sprayed; 6 days
Procedure: II.4 Vetch Aphid (Megoura viciae)
The active compounds were formulated in 1:3 (vol/vol) DMSO:water with different concentrations of formulated compounds.
Bean leaf disks were placed into microtiterplates filled with 0.8% agar-agar and 2.5 ppm OPUS™. The leaf disks were sprayed with 2.5 μl of the test solution and 5 to 8 adult aphids were placed into the microtiterplates which were then closed and kept at 23±1° C. and 50±5% relative humidity under fluorescent light for 6 days. Mortality was assessed on the basis of vital, reproduced aphids. Aphid mortality and fecundity was then visually assessed.

[5] = tested on: Boll Weevil (Anthonomus grandis); assay: Boll weevil, insect diet with eggs in 24-well microtiter plates; settings: test solution 2500 mg/L; sprayed onto insect diet; 5 days
[6] = tested on: Green Peach Aphid (Myzus persicae); assay: Green peach aphid through systemic means, artificial diet under membrane; settings: 2500 ppm, 3 days
[7] = tested on: Cotton Aphid (Aphis gossypii, Mixed Life Stages); assay: Cotton aphid, method a (cotyledon dip); settings: 300 ppm; cotton cotyledons dipped; after 5 days
Text: II.1 Cotton Aphid (Aphis gossypii, Mixed Life Stages)
The active compounds were formulated in 50:50 (vol/vol) acetone:water and 100 ppm Kinetica™ surfactant.
Cotton plants at the cotyledon stage (one plant per pot) were infested by placing a heavily infested leaf from the main colony on top of each cotyledon. The aphids were allowed to transfer to the host plant overnight, and the leaf used to transfer the aphids was removed. The cotyledons were dipped in the test solution and allowed to dry. After 5 days, mortality counts were made.

[8] = tested on: Green Peach Aphid (Myzus persicae, Mixed Life Stages); assay: Green peach aphid, method a (pepper leaf dip); settings: 300 ppm; pepper leaves dipped; after 5 days
[9] = tested on: Brown Planthopper (Nilaparvata lugens); assay: Brown planthopper, sprayed rice seedlings; settings: 500 ppm, after 72 hours

Row | SMILES | mortality in comparison with untreated controls [1] | mortality in comparison with untreated controls [2] | mortality in comparison with untreated controls [3] | mortality [4] | mortality (egg and larval) [5] | mortality in comparison with untreated controls [6] [%] | mortality in comparison with untreated controls [7] | mortality in comparison with untreated controls [8] | mortality in comparison with untreated controls [9]
1 | Cc1nn(CC(F)(F)F)nc1C(=O)Nc1cccnc1 [Example 12] | at least 75% | at least 75% | at least 90% | at least 90% | at least 50% |  |  |  | 
2 | CN(C(=O)c1cnns1)c1cccnc1 [Example 16] |  | at least 75% |  |  |  | 100 |  |  | 
3 | O=C(Nc1cccnc1)c1csnn1 [Example 9] |  |  |  |  |  | 100 |  |  | 
4 | O=C(Nc1cccnc1)c1nc(-c2ccccc2)n(-c2ccccc2)n1 [Example 20] |  |  |  |  |  | 100 |  |  | 
5 | COCCn1nnc(C(=O)N(C)c2cccnc2)c1C [Example 27] |  | at least 75% | at least 90% |  |  | 100 |  |  | 
6 | Cc1c(C(=O)Nc2cccnc2)nnn1CC(C)C [Example 23] | at least 75% | at least 75% | at least 90% | at least 90% |  | 100 |  |  | 
7 | COCCn1nnc(C(=O)Nc2cccnc2)c1C [Example 15] | at least 75% | at least 75% | at least 90% | at least 90% |  | 100 |  |  | 
8 | Cc1n[nH]nc1C(=O)Nc1cccnc1 [Example 5] |  |  |  |  |  |  | at least 75% | at least 75% | 
9 | Cc1nn(CC(F)(F)F)nc1C(=O)N(C)c1cccnc1 [Example 13] | at least 75% | at least 75% | at least 90% | at least 90% |  | 100 |  |  | at least 50%
10 | Cc1nnsc1C(=O)Nc1cccnc1 [Example 1] |  |  |  | at least 90% |  |  | at least 75% | at least 75% | 
11 | Cc1c(C(=O)N(C)c2cccnc2)nnn1CC(C)C [Example 14] | at least 75% | at least 75% | at least 90% | at least 90% |  | 100 |  |  | 
12 | Cc1c(C(=O)Nc2cccnc2)nnn1CC1CC1 [Example 28] | at least 75% | at least 75% | at least 90% | at least 90% |  | 100 |  |  | 
13 | O=C(Nc1cccnc1)c1cnn(-c2ccccc2)n1 [Example 3] |  |  |  |  |  | 100 |  |  | 
14 | Cc1c(C(=O)N(C)c2cccnc2)nnn1CC1CC1 [Example 26] | at least 75% | at least 75% | at least 90% | at least 90% |  | 100 |  |  | 
15 | Cc1c(C(=O)Nc2cccnc2)nnn1C [Example 6] |  |  | at least 90% | at least 90% |  |  |  |  | at least 50%
